PubChem BioAssay AID686938 | Drosophila RNAi Screening Center | 2013

Screen: 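Fly genes required for calcium entry once internal stores are emptied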 (primary screen)
Cell system: Drosophila S2R+ cells
Reagent: long dsRNA against Drosophila genes, about 0.25 µg dsRNA per well, roughly 10,000 cells
Duration: 5 days of knock-down before the calcium assay
Challenge: thapsigargin (SERCA pump blocker) to empty calcium stores; entry signal taken 4 min after adding it
Measured: 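Duplicate raw fluo-4 intensities per well from a plate reader, at rest and four minutes after thapsigargin emptied calcium stores; entry-to-rest ratio filled for only some wells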
Direction: calcium entry signal: higher = stronger calcium signal after store depletion; resting calcium signal: higher = higher resting calcium signal
Hit rule: 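Hit if the duplicate-averaged plate z-score for entry over resting signal is under −3; wells with weak total dye signal (Fmax z < −2) or more than 5 off-targets removed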
Meaning of the calls: active = strongly reduced calcium entry; inactive = no strong reduction
In all, the deposit lists about 23,000 reagents; below is an unselected part of those with a known target gene and a result. In the full data, 75 (0.33%) got an active call. 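Raw plate signals without normalisation; calls rest on plate z-scores that were not deposited; ratio present for only 364 wells.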 Entries without a mark were called inactive. Not given: the dose of the treatment.

| calcium entry signal, replicate 1 (fluorescence units) | calcium entry signal, replicate 2 (fluorescence units) | resting calcium signal, replicate 1 (fluorescence units) | resting calcium signal, replicate 2 (fluorescence units) | gene knocked down | amplicon |
| --- | --- | --- | --- | --- | --- |
| 3.80e7 | 3.19e7 | 2.31e7 | 1.78e7 | Syx1A | DRSC15359 |
| 3.00e7 (active) | 3.31e7 | 1.84e7 | 2.38e7 | Syx1A | DRSC21554 |
| 5.06e7 | 5.47e7 | 2.35e7 | 2.09e7 | GatB | DRSC15807 |
| 3.33e7 | – | 1.75e7 | – | twit | DRSC03210 |
| 4.41e7 | – | 1.80e7 | – | CG12299 | DRSC02158 |
| 3.18e7 | 3.88e7 | 1.63e7 | 1.63e7 | hog | DRSC19057 |
| 4.43e7 | 3.00e7 | 2.00e7 | 1.43e7 | NimC4 | DRSC01945 |
| 3.50e7 | 4.28e7 | 1.78e7 | 2.00e7 | CG15423 | DRSC00437 |
| 3.56e7 | 4.64e7 | 1.89e7 | 2.51e7 | c12.1 | DRSC18750 |
| 3.55e7 | 4.13e7 | 1.89e7 | 1.83e7 | CG14990 | DRSC08449 |
| 3.47e7 | 4.56e7 | 1.87e7 | 1.92e7 | CG13659 | DRSC14660 |
| 3.66e7 | 5.21e7 | 1.63e7 | 2.08e7 | CG6465 | DRSC16046 |
| 2.46e7 | 3.39e7 | 1.17e7 | 2.47e7 | CG13482 | DRSC10024 |
| 4.43e7 | 3.84e7 | 1.93e7 | 1.60e7 | EloA | DRSC16109 |
| 4.38e7 | 4.30e7 | 2.08e7 | 1.99e7 | CG7065 | DRSC18420 |
| 5.01e7 | – | 2.58e7 | – | spz6 | DRSC04533 |
| 3.98e7 | 4.01e7 | 2.06e7 | 1.81e7 | CG1299 | DRSC08300 |
| 5.74e7 | 5.60e7 | 1.84e7 | 2.26e7 | CG13133 | DRSC02230 |
| 3.56e7 | 1.89e7 | 1.78e7 | 1.03e7 | CG11698 | DRSC14355 |
| 2.51e7 | 2.94e7 | 1.38e7 | 1.66e7 | CG2691 | DRSC19866 |
| 2.38e7 | 3.17e7 | 1.26e7 | 1.61e7 | Nup160 | DRSC02774 |
| 2.45e7 | 4.13e7 | 1.59e7 | 1.86e7 | Or65b | DRSC08809 |
| 4.10e7 | 3.45e7 | 2.07e7 | 1.76e7 | CG12594 | DRSC14532 |
| 3.62e7 | 4.03e7 | 1.96e7 | 1.92e7 | Cyp6a15Psi | DRSC07377 |
| 4.33e7 | – | 2.16e7 | – | Ca-alpha1D | DRSC03284 |

7 entries from above, ordered by “resting calcium signal, replicate 2 (fluorescence units)”, lowest first.
| calcium entry signal, replicate 1 (fluorescence units) | calcium entry signal, replicate 2 (fluorescence units) | resting calcium signal, replicate 1 (fluorescence units) | resting calcium signal, replicate 2 (fluorescence units) | gene knocked down | amplicon |
| --- | --- | --- | --- | --- | --- |
| 4.43e7 | 3.00e7 | 2.00e7 | 1.43e7 | NimC4 | DRSC01945 |
| 3.55e7 | 4.13e7 | 1.89e7 | 1.83e7 | CG14990 | DRSC08449 |
| 3.47e7 | 4.56e7 | 1.87e7 | 1.92e7 | CG13659 | DRSC14660 |
| 3.50e7 | 4.28e7 | 1.78e7 | 2.00e7 | CG15423 | DRSC00437 |
| 3.66e7 | 5.21e7 | 1.63e7 | 2.08e7 | CG6465 | DRSC16046 |
| 2.46e7 | 3.39e7 | 1.17e7 | 2.47e7 | CG13482 | DRSC10024 |
| 3.56e7 | 4.64e7 | 1.89e7 | 2.51e7 | c12.1 | DRSC18750 |

The listing continues:
| calcium entry signal, replicate 1 (fluorescence units) | calcium entry signal, replicate 2 (fluorescence units) | resting calcium signal, replicate 1 (fluorescence units) | resting calcium signal, replicate 2 (fluorescence units) | gene knocked down | amplicon |
| --- | --- | --- | --- | --- | --- |
| 4.27e7 | 4.81e7 | 2.06e7 | 2.27e7 | CG1492 | DRSC19605 |
| 3.11e7 | 4.96e7 | 1.62e7 | 2.07e7 | Fer2LCH | DRSC16672 |
| 4.30e7 | – | 1.90e7 | – | sktl | DRSC04715 |
| 3.14e7 | 2.97e7 | 1.57e7 | 1.60e7 | by | DRSC16482 |
| 3.91e7 | 4.34e7 | 1.90e7 | 2.03e7 | Bcat | DRSC19756 |
| 3.77e7 | 3.88e7 | 2.16e7 | 2.01e7 | Rpn13 | DRSC06379 |
| 4.20e7 | 1.82e7 | 1.99e7 | 9.77e6 | Tango8 | DRSC06474 |
| 2.36e7 | 2.22e7 | 1.20e7 | 1.05e7 | Art2 | DRSC00627 |
| 3.99e7 | 4.51e7 | 2.00e7 | 2.08e7 | CG13875 | DRSC08345 |
| 3.80e7 | – | 2.04e7 | – | Col4a1 | DRSC03291 |
| 2.42e7 | 2.70e7 | 1.25e7 | 1.31e7 | CG15878 | DRSC08486 |
| 2.19e7 | 2.60e7 | 1.14e7 | 1.19e7 | CG32091 | DRSC10141 |
| 2.23e7 | 2.84e7 | 1.17e7 | 1.35e7 | CG32091 | DRSC10820 |
| 4.57e7 | 4.28e7 | 2.12e7 | 1.87e7 | Cyp6a14 | DRSC07376 |
| 2.88e7 | 3.34e7 | 1.41e7 | 1.56e7 | CG12112 | DRSC17809 |
